Experimental data reported in PMC4476799, “Englerin A Agonizes the TRPC4/C5 Cation Channels to Inhibit Tumor Cell Line Proliferation” (PLoS ONE, 2015).
Further values from the same series stand in other lists.

Test system: cancer cell lines from the cancer cell line encyclopedia (CCLE)
Experiment: Cell line profiling (CLiP) proliferation experiment
Assay type: cell-based
Parameters: ACTIVITY_AREA: scale not given here; AMAX: unit not given here
Procedure: Compound profiling experiment and data analysis was performed as previously described. Data was imported and plotted using the Tibco Spotfire DXP application. Lines were categorized as sensitive, intermediate and refractory as follows: Amax<-40 & Inflection Point <2 ~ Sensitive, Amax>-20 & Inflection Point >10 ~ Refractory, all else were called Intermediate. Cancer Cell line HG-U133 Plus 2 data was processed and normalized as described. […] Five sets of refractory cell lines were generated from the pool of refractory cell lines trying to match the lineage composition of the set of sensitive cell lines. The limma package was used as previously described to perform the statistical comparison.

[1] = cell line SCaBER, urinary_tract, transitional_cell_carcinoma
[2] = cell line SEM, haematopoietic_and_lymphoid_tissue, acute_lymphoblastic_B_cell_leukaemia
[3] = cell line SF126, central_nervous_system, astrocytoma
[4] = cell line SF-295 (central_nervous_system, astrocytoma_Grade_IV)
[5] = cell line SF-295, central_nervous_system, astrocytoma_Grade_IV
[6] = cell line SHP-77, lung, small_cell_carcinoma
[7] = cell line SK-CO-1, large_intestine, adenocarcinoma
[8] = cell line SK-LMS-1, soft_tissue
[9] = cell line SK-LU-1, lung, adenocarcinoma
[10] = cell line SK-MES-1, lung, squamous_cell_carcinoma
[11] = cell line SK-N-AS, autonomic_ganglia
[12] = cell line SK-N-BE(2), autonomic_ganglia
[13] = cell line SK-N-DZ, autonomic_ganglia
[14] = cell line SK-N-FI, autonomic_ganglia
[15] = cell line SK-N-SH (autonomic_ganglia, NS)
[16] = cell line SK-N-SH, autonomic_ganglia
[17] = cell line SK-OV-3, ovary, adenocarcinoma
[18] = cell line SKM-1, haematopoietic_and_lymphoid_tissue, acute_myeloid_leukaemia
[19] = cell line SNB-19, central_nervous_system, astrocytoma_Grade_IV
[20] = cell line SNG-M, endometrium, adenocarcinoma
[21] = cell line SNU-1, stomach, undifferentiated_adenocarcinoma
[22] = cell line SNU-16, stomach, undifferentiated_adenocarcinoma
[23] = cell line SNU-119, ovary, adenocarcinoma
[24] = cell line SNU-182, liver, hepatocellular_carcinoma
[25] = cell line SNU-449, liver, hepatocellular_carcinoma
[26] = cell line SNU-475 (liver, hepatocellular_carcinoma)
[27] = cell line SNU-475, liver, hepatocellular_carcinoma
[28] = cell line SNU-626 (central_nervous_system, astrocytoma_Grade_IV)
[29] = cell line SNU-626, central_nervous_system, astrocytoma_Grade_IV
[30] = cell line SNU-738, central_nervous_system, oligodendroglioma
[31] = cell line SNU-878, liver, hepatocellular_carcinoma
[32] = cell line SNU-1079, biliary_tract
[33] = cell line SW48 (large_intestine, adenocarcinoma)
[34] = cell line SW 1783 (central_nervous_system, astrocytoma_Grade_III)
[35] = cell line Set-2, haematopoietic_and_lymphoid_tissue, essential_thrombocythaemia
[36] = cell line THP-1 (haematopoietic_and_lymphoid_tissue, acute_myeloid_leukaemia)

Structure (SMILES): CC(C)[C@@]12C[C@@H](O)[C@@](C)(O1)[C@@H]1CC[C@@H](C)[C@H]1[C@@H]2OC(=O)/C=C/c1ccccc1 [Englerin B]
- RESPONSE (cell line RT-112, urinary_tract, transitional_cell_carcinoma): INTERMEDIATE
- ACTIVITY_AREA (cell line RVH-421, skin): 25.69
- AMAX (cell line RVH-421, skin): -41.39
- RESPONSE (cell line RVH-421, skin): INTERMEDIATE
- ACTIVITY_AREA (cell line Raji): 46.45
- AMAX (cell line Raji): -92.06
- RESPONSE (cell line Raji): INTERMEDIATE
- ACTIVITY_AREA (cell line Reh): 23.98
- AMAX (cell line Reh): -68.69
- RESPONSE (cell line Reh): INTERMEDIATE
- ACTIVITY_AREA [1]: 14.07
- AMAX [1]: -45.66
- RESPONSE [1]: INTERMEDIATE
- ACTIVITY_AREA [2]: 52.36
- AMAX [2]: -92.78
- RESPONSE [2]: INTERMEDIATE
- ACTIVITY_AREA [3]: 16.33
- AMAX [3]: -51.64
- RESPONSE [3]: INTERMEDIATE
- ACTIVITY_AREA [4]: 32.36
- AMAX [4]: -86.95
- RESPONSE [4]: INTERMEDIATE
- ACTIVITY_AREA [5]: 32.36
- AMAX [5]: -86.95
- RESPONSE [5]: INTERMEDIATE
- ACTIVITY_AREA (cell line SH-4, skin): 33.65
- AMAX (cell line SH-4, skin): -3.14
- RESPONSE (cell line SH-4, skin): REFRACTORY
- ACTIVITY_AREA (cell line SH-10-TC, stomach): 15.1
- AMAX (cell line SH-10-TC, stomach): -43.59
- RESPONSE (cell line SH-10-TC, stomach): INTERMEDIATE
- ACTIVITY_AREA [6]: 31.6
- AMAX [6]: -35.78
- RESPONSE [6]: INTERMEDIATE
- ACTIVITY_AREA (cell line SJRH30, soft_tissue): 51.08
- AMAX (cell line SJRH30, soft_tissue): -72.1
- RESPONSE (cell line SJRH30, soft_tissue): INTERMEDIATE
- ACTIVITY_AREA (cell line SJSA-1, bone): 16.2
- AMAX (cell line SJSA-1, bone): -50.82
- RESPONSE (cell line SJSA-1, bone): INTERMEDIATE
- ACTIVITY_AREA (cell line SK-BR-3, breast): 113.22
- AMAX (cell line SK-BR-3, breast): -42.92
- RESPONSE (cell line SK-BR-3, breast): INTERMEDIATE
- ACTIVITY_AREA [7]: 18.26
- AMAX [7]: -55.85
- RESPONSE [7]: INTERMEDIATE
- ACTIVITY_AREA (cell line SK-ES-1, bone): 20.21
- AMAX (cell line SK-ES-1, bone): -73.28
- RESPONSE (cell line SK-ES-1, bone): INTERMEDIATE
- ACTIVITY_AREA [8]: 30.68
- AMAX [8]: -47.74
- RESPONSE [8]: INTERMEDIATE
- ACTIVITY_AREA [9]: 14.44
- AMAX [9]: -26.13
- RESPONSE [9]: INTERMEDIATE
- ACTIVITY_AREA (cell line SK-MEL-1, skin): 32.43
- AMAX (cell line SK-MEL-1, skin): -84.28
- RESPONSE (cell line SK-MEL-1, skin): INTERMEDIATE
- ACTIVITY_AREA (cell line SK-MEL-2, skin): 1.02
- AMAX (cell line SK-MEL-2, skin): 5.8
- RESPONSE (cell line SK-MEL-2, skin): REFRACTORY
- RESPONSE (cell line SK-MEL-3, skin): REFRACTORY
- ACTIVITY_AREA (cell line SK-MEL-5, skin): 22.94
- AMAX (cell line SK-MEL-5, skin): -46.63
- RESPONSE (cell line SK-MEL-5, skin): INTERMEDIATE
- ACTIVITY_AREA (cell line SK-MEL-24, skin): 33
- AMAX (cell line SK-MEL-24, skin): -43.01
- RESPONSE (cell line SK-MEL-24, skin): INTERMEDIATE
- ACTIVITY_AREA (cell line SK-MEL-30, skin): 109.54
- AMAX (cell line SK-MEL-30, skin): -50.55
- RESPONSE (cell line SK-MEL-30, skin): INTERMEDIATE
- ACTIVITY_AREA [10]: 30.56
- AMAX [10]: -55.21
- RESPONSE [10]: INTERMEDIATE
- ACTIVITY_AREA [11]: 91.35
- AMAX [11]: -34.64
- RESPONSE [11]: INTERMEDIATE
- ACTIVITY_AREA (cell line SK-N-BE(2)): 19.1
- AMAX (cell line SK-N-BE(2)): 2.83
- RESPONSE (cell line SK-N-BE(2)): REFRACTORY
- ACTIVITY_AREA [12]: 19.1
- AMAX [12]: 2.83
- RESPONSE [12]: REFRACTORY
- ACTIVITY_AREA [13]: 7.35
- AMAX [13]: 8.38
- RESPONSE [13]: REFRACTORY
- ACTIVITY_AREA [14]: 42.7
- AMAX [14]: -8.91
- RESPONSE [14]: REFRACTORY
- ACTIVITY_AREA [15]: 19.83
- AMAX [15]: -36.51
- RESPONSE [15]: INTERMEDIATE
- ACTIVITY_AREA [16]: 19.83
- AMAX [16]: -36.51
- RESPONSE [16]: INTERMEDIATE
- ACTIVITY_AREA [17]: 15.78
- AMAX [17]: -2.48
- RESPONSE [17]: REFRACTORY
- ACTIVITY_AREA (cell line SK-UT-1, soft_tissue): 43.67
- AMAX (cell line SK-UT-1, soft_tissue): -47.86
- RESPONSE (cell line SK-UT-1, soft_tissue): INTERMEDIATE
- ACTIVITY_AREA (cell line SKM-1): 38.61
- AMAX (cell line SKM-1): -61.06
- RESPONSE (cell line SKM-1): INTERMEDIATE
- ACTIVITY_AREA [18]: 38.61
- AMAX [18]: -61.06
- RESPONSE [18]: INTERMEDIATE
- ACTIVITY_AREA [19]: 46.12
- AMAX [19]: -38.66
- RESPONSE [19]: INTERMEDIATE
- ACTIVITY_AREA [20]: 18.36
- AMAX [20]: -34.56
- RESPONSE [20]: INTERMEDIATE
- ACTIVITY_AREA [21]: 12.42
- AMAX [21]: -40.73
- RESPONSE [21]: INTERMEDIATE
- ACTIVITY_AREA [22]: 45.05
- AMAX [22]: -92.26
- RESPONSE [22]: INTERMEDIATE
- ACTIVITY_AREA [23]: 11.44
- AMAX [23]: -38.35
- RESPONSE [23]: INTERMEDIATE
- ACTIVITY_AREA [24]: 33.88
- AMAX [24]: -47.55
- RESPONSE [24]: INTERMEDIATE
- ACTIVITY_AREA (cell line SNU-216, stomach): 13.08
- AMAX (cell line SNU-216, stomach): -38.81
- RESPONSE (cell line SNU-216, stomach): INTERMEDIATE
- ACTIVITY_AREA [25]: 71.96
- AMAX [25]: -65.86
- RESPONSE [25]: INTERMEDIATE
- ACTIVITY_AREA [26]: 32.78
- AMAX [26]: -46.9
- RESPONSE [26]: INTERMEDIATE
- ACTIVITY_AREA [27]: 32.78
- AMAX [27]: -46.9
- RESPONSE [27]: INTERMEDIATE
- ACTIVITY_AREA [28]: 35.65
- AMAX [28]: -39.96
- RESPONSE [28]: INTERMEDIATE
- ACTIVITY_AREA [29]: 35.65
- AMAX [29]: -39.96
- RESPONSE [29]: INTERMEDIATE
- ACTIVITY_AREA [30]: 58.38
- AMAX [30]: -11.21
- RESPONSE [30]: REFRACTORY
- ACTIVITY_AREA [31]: 12.07
- AMAX [31]: -56.36
- RESPONSE [31]: INTERMEDIATE
- ACTIVITY_AREA [32]: 17.2
- AMAX [32]: -58.5
- RESPONSE [32]: INTERMEDIATE
- ACTIVITY_AREA [33]: 28.7
- AMAX [33]: -50.84
- RESPONSE [33]: INTERMEDIATE
- ACTIVITY_AREA [34]: 20.67
- AMAX [34]: -42.77
- RESPONSE [34]: INTERMEDIATE
- ACTIVITY_AREA [35]: 53.05
- AMAX [35]: -70.32
- RESPONSE [35]: INTERMEDIATE
- ACTIVITY_AREA [36]: 72.35
- AMAX [36]: -58.83
- RESPONSE [36]: INTERMEDIATE
- ACTIVITY_AREA (cell line U-118 MG): 17.9
- AMAX (cell line U-118 MG): -38.77
- RESPONSE (cell line U-118 MG): INTERMEDIATE
- ACTIVITY_AREA (cell line huH-1, liver): 60.34
- AMAX (cell line huH-1, liver): -47.26
- RESPONSE (cell line huH-1, liver): INTERMEDIATE
- ACTIVITY_AREA (huH-1 (liver)): 60.34
- AMAX (huH-1 (liver)): -47.26
- RESPONSE (huH-1 (liver)): INTERMEDIATE
